Results from article PMC6562498.
Residue numbers refer to the chain shown, from its start. No constants are given. Whether binding was seen depends on the method and setting. In cells and extracts the contact can be indirect. Some results given as binding are weak or reduced against the parent protein; the word gives no strength. For part of these data: Where a sequence is shown, tags or fusion partners need not be part of it.

The chains behind the UniProt entries cited, without tags or fusion partners.
UniProt P78527: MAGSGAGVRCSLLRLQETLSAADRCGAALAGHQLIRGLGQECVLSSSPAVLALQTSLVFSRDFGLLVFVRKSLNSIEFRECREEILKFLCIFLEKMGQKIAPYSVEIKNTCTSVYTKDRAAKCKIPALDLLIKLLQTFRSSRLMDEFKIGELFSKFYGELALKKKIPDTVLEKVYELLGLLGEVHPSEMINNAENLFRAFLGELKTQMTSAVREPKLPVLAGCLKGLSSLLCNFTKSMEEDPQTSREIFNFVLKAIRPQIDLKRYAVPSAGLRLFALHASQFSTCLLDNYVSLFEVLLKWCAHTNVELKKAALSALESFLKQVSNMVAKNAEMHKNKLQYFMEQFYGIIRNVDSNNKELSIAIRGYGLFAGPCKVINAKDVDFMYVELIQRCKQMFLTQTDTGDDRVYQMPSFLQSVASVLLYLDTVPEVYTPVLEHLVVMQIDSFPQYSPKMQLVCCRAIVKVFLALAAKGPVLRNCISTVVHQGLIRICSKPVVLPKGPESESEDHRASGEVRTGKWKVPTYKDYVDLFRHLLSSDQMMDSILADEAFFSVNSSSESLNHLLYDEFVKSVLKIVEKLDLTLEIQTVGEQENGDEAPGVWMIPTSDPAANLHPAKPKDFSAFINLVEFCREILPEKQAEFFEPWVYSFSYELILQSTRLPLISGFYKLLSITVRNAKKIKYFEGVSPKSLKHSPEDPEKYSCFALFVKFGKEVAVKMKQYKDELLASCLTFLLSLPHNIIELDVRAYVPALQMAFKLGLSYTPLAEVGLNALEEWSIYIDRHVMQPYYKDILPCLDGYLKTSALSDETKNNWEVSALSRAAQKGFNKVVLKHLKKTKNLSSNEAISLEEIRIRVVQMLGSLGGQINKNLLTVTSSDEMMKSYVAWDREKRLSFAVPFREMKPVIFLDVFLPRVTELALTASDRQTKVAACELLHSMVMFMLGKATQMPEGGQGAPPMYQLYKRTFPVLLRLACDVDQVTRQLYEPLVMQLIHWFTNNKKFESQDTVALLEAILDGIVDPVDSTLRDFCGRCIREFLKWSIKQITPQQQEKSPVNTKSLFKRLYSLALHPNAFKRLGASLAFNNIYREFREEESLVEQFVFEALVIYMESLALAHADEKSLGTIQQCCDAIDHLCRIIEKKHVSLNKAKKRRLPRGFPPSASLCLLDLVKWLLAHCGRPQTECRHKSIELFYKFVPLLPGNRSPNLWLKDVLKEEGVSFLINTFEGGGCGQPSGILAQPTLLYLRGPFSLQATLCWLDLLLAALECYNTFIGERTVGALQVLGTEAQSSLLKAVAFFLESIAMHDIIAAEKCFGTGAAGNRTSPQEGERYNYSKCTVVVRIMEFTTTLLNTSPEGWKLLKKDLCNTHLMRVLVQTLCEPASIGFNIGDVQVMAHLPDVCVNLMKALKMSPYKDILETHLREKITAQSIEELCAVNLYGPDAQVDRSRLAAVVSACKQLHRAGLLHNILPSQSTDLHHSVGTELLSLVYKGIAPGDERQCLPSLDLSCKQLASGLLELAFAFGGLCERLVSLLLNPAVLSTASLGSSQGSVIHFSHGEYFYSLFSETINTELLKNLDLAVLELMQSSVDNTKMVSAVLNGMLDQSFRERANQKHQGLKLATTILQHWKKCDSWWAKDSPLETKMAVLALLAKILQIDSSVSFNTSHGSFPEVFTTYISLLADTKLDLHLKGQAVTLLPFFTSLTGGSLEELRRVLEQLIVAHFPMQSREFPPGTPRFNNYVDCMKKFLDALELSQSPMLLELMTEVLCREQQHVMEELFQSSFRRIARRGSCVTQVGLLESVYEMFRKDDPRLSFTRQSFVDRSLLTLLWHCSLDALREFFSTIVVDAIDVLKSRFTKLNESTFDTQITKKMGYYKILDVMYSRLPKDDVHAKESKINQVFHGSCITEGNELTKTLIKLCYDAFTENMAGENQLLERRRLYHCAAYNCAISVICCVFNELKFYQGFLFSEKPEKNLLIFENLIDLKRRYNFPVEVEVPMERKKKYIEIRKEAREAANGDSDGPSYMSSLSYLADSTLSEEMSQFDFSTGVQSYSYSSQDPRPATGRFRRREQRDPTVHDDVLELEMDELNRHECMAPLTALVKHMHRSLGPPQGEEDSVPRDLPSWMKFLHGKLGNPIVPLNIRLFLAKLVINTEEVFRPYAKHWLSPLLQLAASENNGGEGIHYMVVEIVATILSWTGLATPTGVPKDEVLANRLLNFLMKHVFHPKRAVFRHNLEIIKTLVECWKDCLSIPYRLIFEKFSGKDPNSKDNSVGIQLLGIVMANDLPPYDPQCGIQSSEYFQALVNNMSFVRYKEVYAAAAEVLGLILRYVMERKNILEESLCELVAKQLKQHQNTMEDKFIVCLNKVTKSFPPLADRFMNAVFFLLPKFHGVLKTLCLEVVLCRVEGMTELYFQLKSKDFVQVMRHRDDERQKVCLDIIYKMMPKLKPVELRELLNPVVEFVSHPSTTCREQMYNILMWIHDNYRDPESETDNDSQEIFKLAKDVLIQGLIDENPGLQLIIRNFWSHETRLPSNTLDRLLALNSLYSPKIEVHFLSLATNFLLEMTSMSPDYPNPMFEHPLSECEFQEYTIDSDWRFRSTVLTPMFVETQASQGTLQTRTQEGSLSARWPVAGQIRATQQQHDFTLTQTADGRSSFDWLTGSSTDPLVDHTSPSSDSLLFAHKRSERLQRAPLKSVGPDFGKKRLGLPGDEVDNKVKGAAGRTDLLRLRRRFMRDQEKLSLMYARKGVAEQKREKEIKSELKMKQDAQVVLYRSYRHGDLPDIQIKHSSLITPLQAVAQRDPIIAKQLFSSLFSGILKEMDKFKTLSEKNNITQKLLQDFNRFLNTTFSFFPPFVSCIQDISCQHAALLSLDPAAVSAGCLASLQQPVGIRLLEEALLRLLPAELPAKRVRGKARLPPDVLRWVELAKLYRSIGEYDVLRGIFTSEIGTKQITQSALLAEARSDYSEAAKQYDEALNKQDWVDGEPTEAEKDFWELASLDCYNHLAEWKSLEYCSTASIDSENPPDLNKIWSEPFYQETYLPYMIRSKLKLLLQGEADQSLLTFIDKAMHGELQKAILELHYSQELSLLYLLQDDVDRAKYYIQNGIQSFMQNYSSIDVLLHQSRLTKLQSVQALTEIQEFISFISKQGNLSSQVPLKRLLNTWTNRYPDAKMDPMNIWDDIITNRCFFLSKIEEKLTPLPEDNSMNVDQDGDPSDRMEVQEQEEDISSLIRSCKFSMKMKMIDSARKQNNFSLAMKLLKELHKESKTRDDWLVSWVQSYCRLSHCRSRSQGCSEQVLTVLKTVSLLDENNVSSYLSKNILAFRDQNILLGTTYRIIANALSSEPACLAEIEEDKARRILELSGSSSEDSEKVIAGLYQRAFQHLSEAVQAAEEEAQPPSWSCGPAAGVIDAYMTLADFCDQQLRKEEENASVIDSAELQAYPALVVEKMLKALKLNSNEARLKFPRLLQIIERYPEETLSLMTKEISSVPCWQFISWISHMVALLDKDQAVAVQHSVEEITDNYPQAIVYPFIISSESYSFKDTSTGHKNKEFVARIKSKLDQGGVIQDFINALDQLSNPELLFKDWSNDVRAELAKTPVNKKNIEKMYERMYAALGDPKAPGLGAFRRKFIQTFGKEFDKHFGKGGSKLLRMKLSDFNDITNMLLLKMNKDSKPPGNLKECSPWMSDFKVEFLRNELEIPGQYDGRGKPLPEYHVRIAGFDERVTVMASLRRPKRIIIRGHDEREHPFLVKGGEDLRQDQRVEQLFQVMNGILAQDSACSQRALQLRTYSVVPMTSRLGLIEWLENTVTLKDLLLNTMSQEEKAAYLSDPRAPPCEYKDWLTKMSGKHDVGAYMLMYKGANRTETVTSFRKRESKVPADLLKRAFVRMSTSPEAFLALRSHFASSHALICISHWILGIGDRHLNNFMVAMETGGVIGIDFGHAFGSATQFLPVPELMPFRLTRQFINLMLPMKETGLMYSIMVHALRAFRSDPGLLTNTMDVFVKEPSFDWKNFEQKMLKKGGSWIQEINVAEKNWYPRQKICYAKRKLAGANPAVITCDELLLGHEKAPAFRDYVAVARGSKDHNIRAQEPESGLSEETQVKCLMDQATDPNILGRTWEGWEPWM
UniProt P09874: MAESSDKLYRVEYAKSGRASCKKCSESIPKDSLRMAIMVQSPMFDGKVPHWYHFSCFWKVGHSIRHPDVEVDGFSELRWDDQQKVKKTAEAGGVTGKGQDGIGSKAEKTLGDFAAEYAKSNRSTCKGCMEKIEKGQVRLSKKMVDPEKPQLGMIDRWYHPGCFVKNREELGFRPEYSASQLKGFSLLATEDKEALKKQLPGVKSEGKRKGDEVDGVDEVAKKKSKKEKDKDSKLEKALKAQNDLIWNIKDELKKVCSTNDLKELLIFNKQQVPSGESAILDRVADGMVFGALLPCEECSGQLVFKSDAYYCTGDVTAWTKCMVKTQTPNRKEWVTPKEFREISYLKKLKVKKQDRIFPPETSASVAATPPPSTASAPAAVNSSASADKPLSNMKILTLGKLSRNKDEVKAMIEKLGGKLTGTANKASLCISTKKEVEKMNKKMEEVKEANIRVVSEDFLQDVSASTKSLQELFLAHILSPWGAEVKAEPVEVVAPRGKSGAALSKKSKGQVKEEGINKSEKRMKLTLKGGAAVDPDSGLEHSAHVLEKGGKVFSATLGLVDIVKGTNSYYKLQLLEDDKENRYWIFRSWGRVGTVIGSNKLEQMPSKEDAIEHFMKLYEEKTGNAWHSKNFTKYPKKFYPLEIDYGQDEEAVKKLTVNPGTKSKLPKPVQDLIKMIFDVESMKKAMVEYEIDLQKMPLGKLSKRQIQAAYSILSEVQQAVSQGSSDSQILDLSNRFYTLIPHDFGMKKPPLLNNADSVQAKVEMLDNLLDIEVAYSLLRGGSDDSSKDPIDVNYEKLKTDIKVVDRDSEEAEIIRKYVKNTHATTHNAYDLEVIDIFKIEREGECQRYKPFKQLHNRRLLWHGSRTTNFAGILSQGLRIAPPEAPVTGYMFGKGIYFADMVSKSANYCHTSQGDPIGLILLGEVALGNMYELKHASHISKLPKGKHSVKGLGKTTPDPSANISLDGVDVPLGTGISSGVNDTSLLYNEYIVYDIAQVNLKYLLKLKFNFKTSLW
UniProt Q92878: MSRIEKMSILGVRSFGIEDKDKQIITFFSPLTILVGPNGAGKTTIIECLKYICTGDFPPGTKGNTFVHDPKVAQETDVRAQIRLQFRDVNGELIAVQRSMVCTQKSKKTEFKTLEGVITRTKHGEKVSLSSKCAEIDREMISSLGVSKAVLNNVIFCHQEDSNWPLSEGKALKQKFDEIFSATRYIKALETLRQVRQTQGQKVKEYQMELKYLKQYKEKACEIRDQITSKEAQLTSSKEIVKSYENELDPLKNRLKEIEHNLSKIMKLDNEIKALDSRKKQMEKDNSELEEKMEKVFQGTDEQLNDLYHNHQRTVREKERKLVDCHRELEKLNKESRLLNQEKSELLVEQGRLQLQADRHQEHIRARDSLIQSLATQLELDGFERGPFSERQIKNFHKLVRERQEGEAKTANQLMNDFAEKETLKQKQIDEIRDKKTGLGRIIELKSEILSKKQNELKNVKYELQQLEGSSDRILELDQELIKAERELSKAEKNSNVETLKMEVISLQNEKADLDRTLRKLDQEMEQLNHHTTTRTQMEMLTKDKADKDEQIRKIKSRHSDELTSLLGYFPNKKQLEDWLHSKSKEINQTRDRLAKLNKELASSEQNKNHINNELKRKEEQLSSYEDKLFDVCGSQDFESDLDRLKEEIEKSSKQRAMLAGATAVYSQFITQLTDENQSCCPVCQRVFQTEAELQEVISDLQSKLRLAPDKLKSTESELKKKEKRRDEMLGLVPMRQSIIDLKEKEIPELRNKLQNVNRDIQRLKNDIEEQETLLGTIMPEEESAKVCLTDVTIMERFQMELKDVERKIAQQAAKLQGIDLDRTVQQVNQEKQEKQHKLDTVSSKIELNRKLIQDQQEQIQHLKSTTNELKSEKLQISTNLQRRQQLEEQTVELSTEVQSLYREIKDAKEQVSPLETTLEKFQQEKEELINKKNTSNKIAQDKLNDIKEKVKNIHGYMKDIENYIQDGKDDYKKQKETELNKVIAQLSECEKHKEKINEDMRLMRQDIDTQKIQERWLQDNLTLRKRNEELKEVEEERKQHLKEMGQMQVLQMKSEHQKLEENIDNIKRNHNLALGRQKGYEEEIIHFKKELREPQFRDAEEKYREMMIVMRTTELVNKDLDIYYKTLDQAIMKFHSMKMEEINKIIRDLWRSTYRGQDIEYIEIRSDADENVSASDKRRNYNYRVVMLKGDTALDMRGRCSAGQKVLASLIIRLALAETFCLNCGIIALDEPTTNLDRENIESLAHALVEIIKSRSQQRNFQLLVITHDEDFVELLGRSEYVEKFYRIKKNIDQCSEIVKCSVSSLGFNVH

Experiments:
[1] = target: T1, P2-GFP GR P-box mutant (human) (UniProt P41235); test: co-IP; HCT116 cells transfected with wild-type or mutant P2-GFP constructs, total extracts 48 h later, GFP-Trap beads overnight, six washes in Triton buffer, Western blot; protein-A sepharose beads as control
T1 sequence: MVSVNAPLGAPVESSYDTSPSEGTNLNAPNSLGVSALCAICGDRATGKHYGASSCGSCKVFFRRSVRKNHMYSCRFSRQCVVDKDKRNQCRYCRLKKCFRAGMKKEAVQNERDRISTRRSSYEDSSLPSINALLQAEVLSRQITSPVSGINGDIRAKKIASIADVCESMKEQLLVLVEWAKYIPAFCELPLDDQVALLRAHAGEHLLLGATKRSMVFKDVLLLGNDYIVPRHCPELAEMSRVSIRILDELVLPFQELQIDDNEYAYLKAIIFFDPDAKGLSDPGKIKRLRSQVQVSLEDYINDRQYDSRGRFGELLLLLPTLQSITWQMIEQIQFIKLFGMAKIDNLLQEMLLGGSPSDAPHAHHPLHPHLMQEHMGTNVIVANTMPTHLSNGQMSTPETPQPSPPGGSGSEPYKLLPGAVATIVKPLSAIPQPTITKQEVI

[2] = target: T2, P2-GFP ΔAF-2 mutant (human) (UniProt P41235); test: as above
T2 sequence: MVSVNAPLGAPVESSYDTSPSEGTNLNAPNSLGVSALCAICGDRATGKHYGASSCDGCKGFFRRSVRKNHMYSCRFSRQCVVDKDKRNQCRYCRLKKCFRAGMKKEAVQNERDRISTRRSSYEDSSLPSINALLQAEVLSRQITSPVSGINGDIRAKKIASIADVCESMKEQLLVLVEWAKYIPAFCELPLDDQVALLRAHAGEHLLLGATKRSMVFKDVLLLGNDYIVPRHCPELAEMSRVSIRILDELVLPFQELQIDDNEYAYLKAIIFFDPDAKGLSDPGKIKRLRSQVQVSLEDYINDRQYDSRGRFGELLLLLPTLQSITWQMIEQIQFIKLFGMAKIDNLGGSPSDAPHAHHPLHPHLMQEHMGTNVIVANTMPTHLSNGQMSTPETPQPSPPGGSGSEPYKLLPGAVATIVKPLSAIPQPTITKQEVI

[3] = target: T3, P2-GFP ΔA/T-box mutant (human) (UniProt P41235); test: as above
T3 sequence: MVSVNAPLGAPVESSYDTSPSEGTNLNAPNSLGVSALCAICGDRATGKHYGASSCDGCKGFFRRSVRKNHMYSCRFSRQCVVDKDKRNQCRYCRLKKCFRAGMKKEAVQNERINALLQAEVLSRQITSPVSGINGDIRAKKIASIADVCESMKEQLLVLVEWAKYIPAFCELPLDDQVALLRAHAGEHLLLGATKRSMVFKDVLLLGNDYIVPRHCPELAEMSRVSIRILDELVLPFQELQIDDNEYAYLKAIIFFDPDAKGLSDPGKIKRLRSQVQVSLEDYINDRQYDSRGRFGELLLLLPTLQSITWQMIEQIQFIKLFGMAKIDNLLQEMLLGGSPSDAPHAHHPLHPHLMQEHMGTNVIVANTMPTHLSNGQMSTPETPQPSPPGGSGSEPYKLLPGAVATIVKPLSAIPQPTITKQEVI

[4] = target: T4, P2-GFP ΔP-box mutant (human) (UniProt P41235); test: as above
T4 sequence: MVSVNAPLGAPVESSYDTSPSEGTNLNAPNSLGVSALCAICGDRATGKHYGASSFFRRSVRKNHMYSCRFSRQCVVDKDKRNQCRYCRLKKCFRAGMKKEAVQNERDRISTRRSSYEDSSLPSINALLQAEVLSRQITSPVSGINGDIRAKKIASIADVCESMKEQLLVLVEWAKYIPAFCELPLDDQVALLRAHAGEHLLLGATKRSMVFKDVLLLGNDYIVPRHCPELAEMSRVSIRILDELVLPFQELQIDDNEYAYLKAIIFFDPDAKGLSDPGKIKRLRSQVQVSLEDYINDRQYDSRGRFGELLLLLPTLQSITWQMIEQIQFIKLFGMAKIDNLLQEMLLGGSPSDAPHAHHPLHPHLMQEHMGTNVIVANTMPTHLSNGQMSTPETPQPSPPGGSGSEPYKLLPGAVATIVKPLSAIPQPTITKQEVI

[5] = target: T5, wild-type P2-GFP construct, transfected (human) (UniProt P41235); test: as above
T5 sequence: T1 sequence with G56D, S57G, V60G

[6] = target: T6, P2-GFP C93R mutant (human) (UniProt P41235); test: as above
T6 sequence: T1 sequence with G56D, S57G, V60G, C93R

[7] = target: T7, endogenous HNF4α (human (endogenous in HT-29 and LoVo)) (UniProt P41235); test: co-IP; endogenous proteins, total extracts of HT-29 and LoVo cells (Triton buffer, sonicated), overnight with anti-HNF4α (sc-6556) or anti-DNA-PKcs (MA5-13404), Protein G beads, Western blot; beads alone as control
T7 sequence: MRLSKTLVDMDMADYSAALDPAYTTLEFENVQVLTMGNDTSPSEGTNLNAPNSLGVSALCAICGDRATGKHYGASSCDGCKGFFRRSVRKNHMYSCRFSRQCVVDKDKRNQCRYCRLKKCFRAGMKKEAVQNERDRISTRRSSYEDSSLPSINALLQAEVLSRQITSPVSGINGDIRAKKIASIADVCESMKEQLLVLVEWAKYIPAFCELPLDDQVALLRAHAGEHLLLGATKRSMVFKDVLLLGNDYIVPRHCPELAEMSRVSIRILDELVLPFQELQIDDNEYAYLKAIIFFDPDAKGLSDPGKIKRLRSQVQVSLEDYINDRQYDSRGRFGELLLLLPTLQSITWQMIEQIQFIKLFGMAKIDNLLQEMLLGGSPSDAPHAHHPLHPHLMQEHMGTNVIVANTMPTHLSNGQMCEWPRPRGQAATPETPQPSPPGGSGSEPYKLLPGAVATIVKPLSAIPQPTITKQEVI

[8] = target: DNA-PKcs, the catalytic subunit of a nuclear DNA-dependent kinase (human (endogenous in HEK293T, HT-29, LoVo, HCT116)) (UniProt P78527); test: as above

Measured: binding

PARP-1 (from UniProt P09874 1-1014)
not listed: [8]
binds: all other assays above

DNA-PKcs, the catalytic subunit of a nuclear DNA-dependent kinase (from UniProt P78527 1-4128)
not listed: [7] | [8]
binds: all other assays above

RAD50 (from UniProt Q92878 1-1312)
not listed: [8]
binds: all other assays above

B1: endogenous HNF4α (protein, UniProt P41235 1-474)
chain: T7 sequence
binds: [8]
